According to paper doi:10.1101/352286:
These are yes or no findings as the source states them, for the method shown. For some assays here: In cells and extracts the contact can be indirect. Some results given as binding are weak or reduced against the parent protein; the word gives no strength. For some assays here: Tags and fused reporters may be left off the sequences shown.

T1: GST-tagged Rad5p (S. cerevisiae) (UniProt P32849)
T1 sequence: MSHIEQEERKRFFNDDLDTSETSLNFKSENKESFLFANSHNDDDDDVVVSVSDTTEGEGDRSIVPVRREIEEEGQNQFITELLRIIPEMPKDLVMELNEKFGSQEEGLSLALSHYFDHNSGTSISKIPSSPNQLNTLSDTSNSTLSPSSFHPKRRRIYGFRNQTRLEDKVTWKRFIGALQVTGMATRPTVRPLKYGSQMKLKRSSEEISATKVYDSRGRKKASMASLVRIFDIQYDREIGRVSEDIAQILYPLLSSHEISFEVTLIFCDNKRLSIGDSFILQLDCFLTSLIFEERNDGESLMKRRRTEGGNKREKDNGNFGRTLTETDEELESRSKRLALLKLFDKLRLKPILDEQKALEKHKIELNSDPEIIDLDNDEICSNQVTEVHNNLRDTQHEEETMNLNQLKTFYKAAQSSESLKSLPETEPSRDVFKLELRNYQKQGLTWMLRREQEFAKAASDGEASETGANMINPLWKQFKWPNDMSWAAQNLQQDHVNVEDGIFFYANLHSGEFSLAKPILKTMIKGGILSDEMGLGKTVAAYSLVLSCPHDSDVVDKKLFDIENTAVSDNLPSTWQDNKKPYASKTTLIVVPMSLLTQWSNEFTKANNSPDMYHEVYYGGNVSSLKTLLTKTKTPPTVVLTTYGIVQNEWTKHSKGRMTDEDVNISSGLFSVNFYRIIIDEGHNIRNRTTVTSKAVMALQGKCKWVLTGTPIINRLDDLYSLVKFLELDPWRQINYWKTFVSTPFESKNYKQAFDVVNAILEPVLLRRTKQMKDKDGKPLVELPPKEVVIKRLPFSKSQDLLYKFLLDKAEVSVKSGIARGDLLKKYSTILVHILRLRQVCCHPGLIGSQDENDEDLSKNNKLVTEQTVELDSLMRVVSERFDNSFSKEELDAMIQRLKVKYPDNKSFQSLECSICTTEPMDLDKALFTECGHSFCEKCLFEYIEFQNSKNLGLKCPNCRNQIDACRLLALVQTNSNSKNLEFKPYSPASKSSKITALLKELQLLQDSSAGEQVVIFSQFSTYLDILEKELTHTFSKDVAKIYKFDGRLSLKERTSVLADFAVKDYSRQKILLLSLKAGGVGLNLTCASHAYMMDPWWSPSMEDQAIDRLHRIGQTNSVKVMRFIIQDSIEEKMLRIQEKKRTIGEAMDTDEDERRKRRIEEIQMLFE

T2: PCNA K168A fused to the DNA binding domain (BD) (S. cerevisiae), P15873
T2 chain: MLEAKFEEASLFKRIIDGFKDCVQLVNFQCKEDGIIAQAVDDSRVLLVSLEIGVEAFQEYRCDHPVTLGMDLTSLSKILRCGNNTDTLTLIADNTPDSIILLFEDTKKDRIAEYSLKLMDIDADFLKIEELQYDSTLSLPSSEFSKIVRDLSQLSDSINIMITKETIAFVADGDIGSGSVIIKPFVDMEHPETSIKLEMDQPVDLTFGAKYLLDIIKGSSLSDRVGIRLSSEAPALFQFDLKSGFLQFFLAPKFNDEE

B1: DPB2 (protein, UniProt P24482 1-689)
chain: MFGSGNVLPVKIQPPLLRPLAYRVLSRKYGLSIKSDGLSALAEFVGTNIGANWRQGPATIKFLEQFAAVWKQQERGLFIDQSGVKEVIQEMKEREKVEWSHEHPIQHEENILGRTDDDENNSDDEMPIAADSSLQNVSLSSPMRQPTERDEYKQPFKPESSKALDWRDYFKVINASQQQRFSYNPHKMQFIFVPNKKQNGLGGIAGFLPDIEDKVQMFLTRYYLTNDRVMRNENFQNSDMFNPLSSMVSLQNELSNTNRQQQSSSMSITPIKNLLGRDAQNFLLLGLLNKNFKGNWSLEDPSGSVEIDISQTIPTQGHYYVPGCMVLVEGIYYSVGNKFHVTSMTLPPGERREITLETIGNLDLLGIHGISNNNFIARLDKDLKIRLHLLEKELTDHKFVILGANLFLDDLKIMTALSKILQKLNDDPPTLLIWQGSFTSVPVFASMSSRNISSSTQFKNNFDALATLLSRFDNLTENTTMIFIPGPNDLWGSMVSLGASGTLPQDPIPSAFTKKINKVCKNVVWSSNPTRIAYLSQEIVIFRDDLSGRFKRHRLEFPFNESEDVYTENDNMMSKDTDIVPIDELVKEPDQLPQKVQETRKLVKTILDQGHLSPFLDSLRPISWDLDHTLTLCPIPSTMVLCDTTSAQFDLTYNGCKVINPGSFIHNRRARYMEYVPSSKKTIQEEIYI
B2: RFC3 (protein, UniProt P38629 1-340)
chain: MSTSTEKRSKENLPWVEKYRPETLDEVYGQNEVITTVRKFVDEGKLPHLLFYGPPGTGKTSTIVALAREIYGKNYSNMVLELNASDDRGIDVVRNQIKDFASTRQIFSKGFKLIILDEADAMTNAAQNALRRVIERYTKNTRFCVLANYAHKLTPALLSRCTRFRFQPLPQEAIERRIANVLVHEKLKLSPNAEKALIELSNGDMRRVLNVLQSCKATLDNPDEDEISDDVIYECCGAPRPSDLKAVLKSILEDDWGTAHYTLNKVRSAKGLALIDLIEGIVKILEDYELQNEETRVHLLTKLADIEYSISKGGNDQIQGSAVIGAIKASFENETVKANV
B3: ECO1 (protein, UniProt P43605 1-281)
chain: MKARKSQRKAGSKPNLIQSKLQVNNGSKSNKIVKCDKCEMSYSSTSIEDRAIHEKYHTLQLHGRKWSPNWGSIVYTERNHSRTVHLSRSTGTITPLNSSPLKKSSPSITHQEEKIVYVRPDKSNGEVRAMTEIMTLVNNELNAPHDENVIWNSTTEEKGKAFVYIRNDRAVGIIIIENLYGGNGKTSSRGRWMVYDSRRLVQNVYPDFKIGISRIWVCRTARKLGIATKLIDVARENIVYGEVIPRYQVAWSQPTDSGGKLASKYNGIMHKSGKLLLPVYI
B4: REV1 (protein, UniProt P12689 1-985)
chain: MGEHGGLVDLLDSDLEYSINRETPDKNNCLSQQSVNDSHLTAKTGGLNARSFLSTLSDDSLIEYVNQLSQTNKNNSNPTAGTLRFTTKNISCDELHADLGGGEDSPIARSVIEIQESDSNGDDVKKNTVYTREAYFHEKAHGQTLQDQILKDQYKDQISSQSSKIFKNCVIYINGYTKPGRLQLHEMIVLHGGKFLHYLSSKKTVTHIVASNLPLKKRIEFANYKVVSPDWIVDSVKEARLLPWQNYSLTSKLDEQQKKLDNCKTVNSIPLPSETSLHKGSKCVGSALLPVEQQSPVNLNNLEAKRIVACDDPDFLTSYFAHSRLHHLSAWKANLKDKFLNENIHKYTKITDKDTYIIFHIDFDCFFATVAYLCRSSSFSACDFKRDPIVVCHGTKNSDIASCNYVARSYGIKNGMWVSQAEKMLPNGIKLISLPYTFEQFQLKSEAFYSTLKRLNIFNLILPISIDEAVCVRIIPDNIHNTNTLNARLCEEIRQEIFQGTNGCTVSIGCSDSLVLARLALKMAKPNGYNITFKSNLSEEFWSSFKLDDLPGVGHSTLSRLESTFDSPHSLNDLRKRYTLDALKASVGSKLGMKIHLALQGQDDEESLKILYDPKEVLQRKSLSIDINWGIRFKNITQVDLFIERGCQYLLEKLNEINKTTSQITLKLMRRCKDAPIEPPKYMGMGRCDSFSRSSRLGIPTNEFGIIATEMKSLYRTLGCPPMELRGLALQFNKLVDVGPDNNQLKLRLPFKTIVTNRAFEALPEDVKNDINNEFEKRNYKRKESGLTSNSLSSKKKGFAISRLEVNDLPSTMEEQFMNELPTQIRAEVRHDLRIQKKIQQTKLGNLQEKIKRREESLQNEKNHFMGQNSIFQPIKFQNLTRFKKICQLVKQWVAETLGDGGPHEKDVKLFVKYLIKLCDSNRVHLVLHLSNLISRELNLCAFLNQDHSGFQTWERILLNDIIPLLNRNKHTYQTVRKLDMDFEV
B5: RAD18, P10862 1-487 (protein)
chain: MDHQITTASDFTTTSIPSLYQLDTLLRCHICKDFLKVPVLTPCGHTFCSLCIRTHLNNQPNCPLCLFEFRESLLRSEFLVSEIIQSYTSLRSSLLDALRIPKPTPVPENEEVPGPENSSWIELISESESDSVNAADDDLQIVATSERKLAKRSMTDILPLSSKPSKRNFAMFRSERIKKKSKPNEQMAQCPICQQFYPLKALEKTHLDECLTLQSLGKKPKISTTFPTESNPHNKSSSRFKVRTPEVDKSSCGETSHVDKYLNSMMSAEHQRLPKINFTSMTQSQIKQKLSSLGLSTNGTRQNMIKRYNHYEMLWNSNFCDSLEPVDEAELKRQLLSWDVSHNKTPQNSSNKGGISKLMIMKSNGKSSSYRKLLENFKNDKFNRKGWMVMFRKDFARLIREAKMKIKTGSSDSSGSVGHSNDGDGVEKVQSDQGTEDQQMEKDQDTVINEDRVAGERNLPNEDSTDADLSRELMDLNEYSKDPPGNN
B6: RAD18 (protein, UniProt P10862 1-487)
chain: B5 chain
B7: Rad5p fused to the activating domain (AD) (protein, UniProt P32849 1-1169)
chain: T1 sequence

What was measured:
[1] = target: T1, GST-tagged Rad5p (S. cerevisiae); test: co-IP
[2] = target: PCNA K168A fused to the DNA binding domain (BD) (S. cerevisiae) (UniProt P15873); test: two-hybrid
[3] = target: Wild-type PCNA (POL30) fused to the DNA binding domain (BD) (S. cerevisiae) (UniProt P15873); test: two-hybrid
[4] = target: T2, PCNA K168A fused to the DNA binding …; test: two-hybrid; details: remark: other sources report otherwise

Molecule	binding [2]	binding [3]	also measured
HA-tagged wild-type PCNA (from UniProt P15873 1-258)			binding [1]: binds
B1	binds	binds	
B2	binds	binds	
B3	binds	binds	
B4	binds		
B5			binding [4]: binds
B6		binds	
B7		binds	
